Some entries share one result that the patent states for a list of compounds.
How the values were obtained:
Blattalla germanica = assay: Pesticidal test against Blattalla germanica, filter paper with sucrose bait (Test Example 7); type: in vivo; conditions: 500 ppm, 0.7 ml on filter paper; two male adults; after 6 days
Nilaparvata lugens [1] = assay: Pesticidal test against Nilaparvata lugens, rice plants stood in test liquid (Test Example 2); type: in vivo; conditions: 45.5 ppm, cup with rice plants placed in 55 ml test liquid for 6 days; 30 first-instar larvae released
Nilaparvata lugens [2] = assay: Pesticidal test against Nilaparvata lugens, test liquid sprayed on rice plants (Test Example 1); type: in vivo; conditions: 500 ppm test liquid sprayed 20 ml/cup on rice plants; 30 first-instar larvae released
Aphis gossypii = assay: Pesticidal test against Aphis gossypii on cucumber (Test Example 3); type: in vivo; conditions: 500 ppm sprayed 20 ml/cup on cucumber plants with about 30 Aphis gossypii
Cullex pipiens pallens = assay: Pesticidal test against Cullex pipiens pallens larvae in water (Test Example 8); conditions: 3.5 ppm in water (0.7 ml of 500 ppm test liquid in 100 ml); twenty final-instar larvae; after 1 days

## N#CC(C#N)(CCC(F)=C(F)F)Cc1ccccc1 [Compound 4, 2-benzyl-2-(3,4,4-trifluoro-3-butenyl)malononitrile]
Blattalla germanica
  mortality: 100%

## N#CC(C#N)(Cc1ccc(OC(F)(F)F)cc1)CC(F)(F)C(F)(F)F [Compound 5, 2-(2,2,3,3,3-pentafluoropropyl)-2-(4-(trifluoromethoxy)benzyl)malononitrile]
Blattalla germanica
  mortality: 100%

## CC(=O)c1ccc(CC(C#N)(C#N)CCC(F)(F)F)cc1 [Compound 6, 2-(4-acetylbenzyl)-2-(3,3,3-trifluoropropyl)malononitrile]
Blattalla germanica
  mortality: 100%

## N#CC(C#N)(CCC(F)(F)F)Cc1c(Cl)cc(C(F)(F)F)cc1Cl [Compound 7, 2-(2,6-dichloro-4-(trifluoromethyl)benzyl)-2-(3,3,3-trifluoropropyl)malononitrile]
Blattalla germanica
  mortality: 100%

## N#CC(C#N)(CCC(F)(F)C(F)(F)F)Cc1ccc(C(F)(F)F)cc1 [Compound 8, 2-(3,3,4,4,4-pentafluorobutyl)-2-(4-(trifluoromethyl)benzyl)malononitrile]
Blattalla germanica
  mortality: 100%

## N#CC(C#N)(CCC(F)(F)F)Cc1ccc(Br)cc1 [Compound 9, 2-(4-bromobenzyl)-2-(3,3,3-trifluoropropyl)malononitrile]
Blattalla germanica
  mortality: 100%

## N#CC(C#N)(CCC(F)(F)C(F)(F)F)Cc1ccc(OC(F)(F)F)cc1 [Compound 10, 2-(3,3,4,4,4-pentafluorobutyl)-2-(4-(trifluoromethoxy)benzyl)malononitrile]
Blattalla germanica
  mortality: 100%

## N#CC(C#N)(CCC(F)F)Cc1ccc(C(F)(F)F)cc1 [Compound 11, 2-(3,3-difluoropropyl)-2-(4-(trifluoromethyl)benzyl)malononitrile]
Blattalla germanica
  mortality: 100%

## N#CC(C#N)(CCC(F)(F)F)Cc1ccc(SC(F)(F)F)cc1 [Compound 13, 2-(4-(trifluoromethylthio)benzyl)-2-(3,3,3-trifluoropropyl)malononitrile]
Blattalla germanica
  mortality: 100%

## N#CC(C#N)(CCC(F)(F)F)Cc1ccc(Cl)cc1 [Compound 15, 2-(4-chlorobenzyl)-2-(3,3,3-trifluoropropyl)malononitrile]
Blattalla germanica
  mortality: 100%

## N#CC(C#N)(CCC(F)(F)F)Cc1ccc(F)cc1 [Compound 16, 2-(4-fluorobenzyl)-2-(3,3,3-trifluoropropyl)malononitrile]
Blattalla germanica
  mortality: 100%

## N#CC(C#N)(CCC(F)(F)F)Cc1c(F)cc(F)cc1F [Compound 17, 2-(2,4,6-trifluorobenzyl)-2-(3,3,3-trifluoropropyl)malononitrile]
Blattalla germanica
  mortality: 100%

## N#CC(C#N)(CCC(F)(F)F)Cc1ccc(F)c(F)c1 [Compound 19, 2-(3,4-difluorobenzyl)-2-(3,3,3-trifluoropropyl)malononitrile]
Blattalla germanica
  mortality: 100%

## N#CC(C#N)(CCC(F)(F)F)Cc1ccc(Cl)c(Cl)c1 [Compound 21, 2-(3,4-dichlorobenzyl)-2-(3,3,3-trifluoropropyl)malononitrile]
Blattalla germanica
  mortality: 100%

## N#Cc1ccc(CC(C#N)(C#N)CCC(F)(F)F)cc1 [Compound 22, 2-(4-cyanobenzyl)-2-(3,3,3-trifluoropropyl)malononitrile]
Blattalla germanica
  mortality: 100%

## N#CC(C#N)(CCC(F)(F)C(F)(F)F)Cc1ccc(Cl)cc1 [Compound 23, 2-(4-chlorobenzyl)-2-(3,3,4,4,4-pentafluorobutyl)malononitrile]
Blattalla germanica
  mortality: 100%

## N#CC(C#N)(CCC(F)(F)F)Cc1ccc(I)cc1 [Compound 26, 2-(4-iodobenzyl)-2-(3,3,3-trifluoropropyl)malononitrile]
Blattalla germanica
  mortality: 100%

## CCc1ccc(CC(C#N)(C#N)CCC(F)(F)F)cc1 [Compound 31, 2-(4-ethylbenzyl)-2-(3,3,3-trifluoropropyl)malononitrile]
Blattalla germanica
  mortality: 100%

## CSc1ccc(CC(C#N)(C#N)CCC(F)(F)F)cc1 [Compound 34, 2-(4-(methylthio)benzyl)-2-(3,3,3-trifluoropropyl)malononitrile]
Blattalla germanica
  mortality: 100%

## N#CC(C#N)(CCC(F)(F)F)Cc1cccc(C(F)(F)F)c1 [Compound 36]
Nilaparvata lugens [1]
  number of parasitic pests on the 6th day after the treatment: ≤ 3
Nilaparvata lugens [2]
  number of parasitic pests on the 6th day after the treatment: ≤ 3

## N#CC(C#N)(CCC(F)(F)F)Cc1ccc(C(F)(F)F)c(Cl)c1 [Compound 39, 2-(3-chloro-4-(trifluoromethyl)benzyl)-2-(3,3,3-trifluoropropyl)malononitrile]
Blattalla germanica
  mortality: 100%

## CC(c1ccc(Cl)cc1)C(C#N)(C#N)CCC(F)(F)F (stereo not shown) [Compound 42, 2-(1-(4-chlorophenyl)ethyl)-2-(3,3,3-trifluoropropyl)malononitrile]
Blattalla germanica
  mortality: 100%

## N#CC(C#N)(CCC(F)(F)F)Cc1ccc(F)cc1Cl [Compound 44, 2-(2-chloro-4-fluorobenzyl)-2-(3,3,3-trifluoropropyl)malononitrile]
Blattalla germanica
  mortality: 100%

## N#CC(C#N)(CCC(F)=C(F)F)Cc1ccc(OC(F)(F)F)cc1 [Compound 49, 2-(3,4,4-trifluoro-3-butenyl)-2-(4-(trifluoromethoxy)benzyl)malononitrile]
Blattalla germanica
  mortality: 100%

## N#CC(C#N)(CCC(F)(F)F)Cc1ccc(OC(F)(F)F)cc1 [Compound 50, 2-(3,3,3-trifluoropropyl)-2-(4-(trifluoromethoxy)benzyl)malononitrile]
Blattalla germanica
  mortality: 100%

## N#CC(C#N)(CCC(F)=C(F)F)Cc1ccc(SC(F)(F)F)cc1 [Compound 54, 2-(3,4,4-trifluoro-3-butenyl)-2-(4-(trifluoromethylthio)benzyl)malononitrile]
Blattalla germanica
  mortality: 100%

## CC(c1ccc(C(F)(F)F)cc1)C(C#N)(C#N)CCC(F)(F)F (stereo not shown) [Compound 57]
Aphis gossypii
  number of survived pests on the 6th day after the treatment: ≤ 3
Nilaparvata lugens [1]
  number of parasitic pests on the 6th day after the treatment: ≤ 3
Nilaparvata lugens [2]
  number of parasitic pests on the 6th day after the treatment: ≤ 3

## N#CC(C#N)(CCC(F)=C(F)F)Cc1ccc(C(F)(F)F)cc1Cl [Compound 62, 2-(2-chloro-4-(trifluoromethyl)benzyl)-2-(3,4,4-trifluoro-3-butenyl)malononitrile]
Blattalla germanica
  mortality: 100%

## N#CC(C#N)(CCF)Cc1ccc(C(F)(F)F)cc1 [Compound 64, 2-(2-fluoroethyl)-2-(4-(trifluoromethyl)benzyl)malononitrile]
Blattalla germanica
  mortality: 100%

## N#CC(C#N)(CCC(F)(F)F)Cc1ccc(F)cc1F [Compound 70, 2-(2,4-difluorobenzyl)-2-(3,3,3-trifluoropropyl)malononitrile]
Blattalla germanica
  mortality: 100%

## N#CC(C#N)(Cc1ccc(C(F)(F)F)cc1)CC(F)(F)F [Compound 72, 2-(2,2,2-trifluoroethyl)-2-(4-(trifluoromethyl)benzyl)malononitrile]
Blattalla germanica
  mortality: 100%

## N#CC(C#N)(CCC(F)=C(F)F)Cc1ccc(C(F)(F)F)cc1 [Compound 73, 2-(3,4,4-trifluoro-3-butenyl)-2-(4-(trifluoromethyl)benzyl)malononitrile]
Blattalla germanica
  mortality: 100%

## N#CC(C#N)(CCC(F)(F)F)Cc1ccc(C(F)(F)F)cc1 [Compound 74, 2-(3,3,3-trifluoropropyl)-2-(4-(trifluoromethyl)benzyl)malononitrile]
Blattalla germanica
  mortality: 100%

## N#CC(C#N)(Cc1ccc(C(F)(F)F)cc1)CC(F)(F)C(F)(F)C(F)(F)F [Compound 77, 2-(2,2,3,3,4,4,4-heptafluorobutyl)-2-(4-(trifluoromethyl)benzyl)malononitrile]
Cullex pipiens pallens
  mortality: 100%
Blattalla germanica
  mortality: 100%
Nilaparvata lugens [1]
  number of parasitic pests on the 6th day after the treatment: ≤ 3

## N#CC(C#N)(CCC(F)(F)F)Cc1c(F)c(F)c(F)c(F)c1F [Compound 80, 2-(2,3,4,5,6-pentafluorobenzyl)-2-(3,3,3-trifluoropropyl)malononitrile]
Blattalla germanica
  mortality: 100%

Reference: US7402691B2, “Malononitrile compounds and their use as pesticides” (Sumitomo Chemical Company, Limited, priority 2001, dated 2008)
